Experimental data taken from publication PMC4964976.
These are yes or no findings as the source states them, for the method shown. Binding seen in cells or lysates may run through a third protein. Binding can be weak; no strength is given.

Target: T1, pyocin S2 immunity protein (P. aeruginosa (strain not stated)) (UniProt Q06579)
T1 sequence: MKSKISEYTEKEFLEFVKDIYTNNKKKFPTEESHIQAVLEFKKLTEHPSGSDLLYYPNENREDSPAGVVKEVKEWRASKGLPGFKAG
Assay: co-purification (nickel affinity + size exclusion chromatography); pyocin and immunity protein co-expressed in E. coli BL21(DE3)pLysS, His6 tag on the immunity protein only; HisTrap in 20 mM Tris/HCl, 500 mM NaCl, pH 7.5, 20-500 mM imidazole gradient, then Superdex S200 or S75 in 50 mM Tris/HCl, 200 mM NaCl, pH 7.5

pyocin S2Δ318 (from UniProt Q06584) (domain or fragment)
binding: binds
